Experimental data reported in PubChem BioAssay AID493014 (National Center for Advancing Translational Sciences (NCATS), 2011).
Some of the results follow. Further columns of the screen follow, without active or inactive calls. Compounds called inactive in the main read-out are mostly missing here. Words in brackets tell the shape of the fitted curve; partial curves, single points and poor fits give uncertain potencies.

Test: qHTS Assay to Find Inhibitors of Chronic Active B-Cell Receptor Signaling
Conditions: ABC-DLBCL IkBa-CBG/CBR reporter, luminescence ratio (green luciferase fused to IkBa over red control in TMD8 lymphoma cells), 4 h
In short: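 Doxycycline induced both beetle luciferases in TMD8 lymphoma cells; IKK-driven degradation limits the IkappaBalpha-fused green signal, while red luminescence normalises for cell number and nonspecific effects. Compounds tested up to 46 uM, 4 hrs.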

[1] = measured here: CBR red luminescence, cell number
[2] = measured here: IkBa-CBG green luminescence

## CCN(CC)S(=O)(=O)c1cccc(-c2nnc(C(=O)c3ccc(C(F)(F)F)cc3)o2)c1
[1]
  AC50: 35.5 µM [rising, partial curve, poor fit]

## COc1ccc2cnn(CCOc3ccccc3)c(=O)c2c1OC
[1]
  AC50: 25.1 µM [falling, single point]

## COc1ccccc1CNS(=O)(=O)c1ccc(-c2cc(C)no2)cc1
[1]
  AC50: 10 µM [rising, partial curve]
[2]
  AC50: 11.2 µM [falling, partial curve]

## O=C(OCC(=O)N1CCC(Cc2ccccc2)CC1)c1ccccc1NCCO
[1]
  AC50: 2.31 µM [falling, full curve]

## CCCC1=Nc2cc(C(=O)NCCCOCC)ccc2Sc2ccccc21
[1]
  AC50: 1.26 µM [rising, full curve, poor fit]
[2]
  AC50: 0.794 µM [falling, full curve, poor fit]

## N#Cc1c(NC(=O)CS(=O)(=O)c2ccc(Cl)cc2)sc2c1CCCCC2
[1]
  AC50: 6.31 µM [falling, single point]

## CC(CC(=O)Nc1nc2ccccc2[nH]1)n1ccnc1 (stereo not drawn)
[1]
  AC50: 12.6 µM [falling, partial curve, poor fit]

## COCCn1c(=O)[nH]c2cc(C(=O)NCCc3ccc(OC)c(OC)c3)ccc2c1=O
[1]
  AC50: 0.708 µM [falling, full curve, poor fit]

## O=C(COc1ccc(-n2ccnc2)cc1)Nc1cccc(Cl)c1
[1]
  AC50: 2.24 µM [rising, partial curve, poor fit]

## O=S(=O)(NC1CCCCCC1)c1ccc(Br)s1
[2]
  AC50: 16.4 µM [rising, partial curve, poor fit]

## COc1cccc(C2=CC(c3ccc(OC)c(OC)c3)NC(=S)N2)c1 (stereo not drawn)
[1]
  AC50: 7.94 µM [falling, partial curve, poor fit]

## Cc1cccc(C(=O)NC2CCN(C(=O)Nc3ccccc3C)CC2)c1
[1]
  AC50: 14.1 µM [rising, partial curve, poor fit]

## Cc1csc(C2=C(O)CN(CCc3ccccc3)C2=N)n1
[1]
  AC50: 2.51 µM [rising, partial curve, poor fit]

## COC(=O)c1ccc(-n2c(C)cc(C(=O)CCl)c2C)cc1
[1]
  AC50: 11.2 µM [falling, partial curve, poor fit]

## CCOc1ccc(Cc2noc3c2C(=O)CC(C)(C)C3)cc1OCC
[1]
  AC50: 3.16 µM [rising, partial curve, poor fit]

## Cc1cc(Cl)ccc1C1=CC(=O)C[C@H](c2ccc(F)cc2)C1
[1]
  AC50: 6.51 µM [rising, single point]

## O=C(Nc1ccc(Cl)cc1)N1CCCC(Cn2cccc2)C1 (stereo not drawn)
[1]
  AC50: 3.98 µM [rising, partial curve, poor fit]

## O=C(O)c1ccccc1-c1noc(-c2ccccc2F)n1
[1]
  AC50: 18.4 µM [falling, single point]

## Cc1ccc2nc(NCCc3ccccc3)c3nncn3c2c1
[1]
  AC50: 0.355 µM [rising, full curve, poor fit]

## Cc1ccc2nc(N(CCCN(C)C)C(=O)c3cc(-c4cccs4)nc4ccccc34)sc2c1
[1]
  AC50: 35.5 µM [falling, single point]

## Cn1c2ccccc2c(=O)c2c(=O)n(C3CCCCC3)c(-c3cccs3)nc21
[1]
  AC50: 20.6 µM [rising, partial curve, poor fit]

## C/C(=N\N=C1\NC(=O)C(CC(=O)Nc2ccc(C)c(Cl)c2)S1)C(C)C (stereo not drawn)
[1]
  AC50: 12.6 µM [falling, single point]

## Clc1ccc(Br)cc1-c1nc(-c2ccncc2)no1
[1]
  AC50: 1.03 µM [rising, full curve, poor fit]

## Cc1ccc2c(c1)C(=O)C(=O)N2Cc1ccc(C(F)(F)F)cc1
[1]
  AC50: 13 µM [rising, single point]
[2]
  AC50: 16.4 µM [falling, single point]

## CC(C)c1ccc(OCc2cccc(C(=O)N/N=C/c3cccnc3)c2)cc1
[1]
  AC50: 0.184 µM [rising, full curve, poor fit]

## CN(c1ccc(C(=O)Nc2ccc3c(c2)n(C)c(=O)n3C)cc1)S(C)(=O)=O
[1]
  AC50: 35.5 µM [rising, partial curve, poor fit]

## Nc1cc(-c2ccccc2)nn1S(=O)(=O)c1ccc(Br)cc1
[1]
  AC50: 8.2 µM [falling, partial curve, poor fit]

## CCOc1ccc2oc(-c3ccccc3)c(C(=O)N(C)C)c2c1
[1]
  AC50: 3.66 µM [falling, single point]

## CN(C)CCCN1C(=O)C(=O)/C(=C(/O)c2ccncc2)C1c1cccc(Br)c1 (stereo not drawn)
[1]
  AC50: 3.26 µM [rising, single point]

## Cc1[nH]c2ccccc2c1C(=O)C(=O)N1CCN(c2ccccc2)CC1
[1]
  AC50: 3.98 µM [rising, partial curve, poor fit]

## COc1ccc(/C=C/C2=CC(C)(C)NC(=S)N2)cc1
[1]
  AC50: 12.6 µM [falling, single point]

## CN(CC1COc2ccccc2O1)C(=S)Nc1ccccc1F (stereo not drawn)
[1]
  AC50: 2.91 µM [rising, partial curve, poor fit]

## Cc1ccc2nc(SCCC#N)nc(C)c2c1
[1]
  AC50: 23.1 µM [falling, single point]

## COc1cccc(NC(=O)NCCc2ccc(Cl)cc2)c1
[1]
  AC50: 15.8 µM [falling, single point]

## O=S(=O)(Nc1ncnc2sc3c(c12)CCC3)c1ccc2ccccc2c1
[1]
  AC50: 7.31 µM [falling, partial curve, poor fit]

## CCOc1ccccc1NC(=O)NC1CC2CCCC(C1)N2Cc1nnnn1CCc1ccccc1 (stereo not drawn)
[1]
  AC50: 2.06 µM [falling, single point]

## Cc1cccc(OCCN2C(=O)C(=O)c3cc(C)ccc32)c1
[1]
  AC50: 11.2 µM [rising, partial curve]
[2]
  AC50: 10 µM [falling, partial curve]

## Cc1cnc(NC(=O)c2ccco2)s1
[1]
  AC50: 35.5 µM [falling, single point]

## CCOc1ccc(NC(=O)NCc2cccnc2)cc1
[1]
  AC50: 6.31 µM [rising, single point]

## Cc1ccc2nsnc2c1S(=O)(=O)N1CCCC1
[1]
  AC50: 12.6 µM [rising, single point]

## O=C1CC(N(CCc2ccccc2)C(=S)Nc2cc(Cl)ccc2Cl)C(=O)N1c1c(Cl)cccc1Cl (stereo not drawn)
[1]
  AC50: 7.08 µM [falling, partial curve]

## O=Cc1cn(-c2ccccc2)nc1-c1cc2ccccc2oc1=O
[1]
  AC50: 7.31 µM [rising, partial curve, poor fit]

## Cc1onc(-c2ccccc2)c1C(=O)N1CC(C)OC(C)C1 (stereo not drawn)
[1]
  AC50: 25.1 µM [rising, single point]

## Cc1ccc(NC(=O)c2cc(S(=O)(=O)N3CCOCC3)cn2C)cc1F
[1]
  AC50: 7.08 µM [falling, partial curve, poor fit]

## CCOc1cnn(-c2ccccc2)c(=O)c1Cl
[1]
  AC50: 3.16 µM [falling, partial curve]

## CC(C)OC(=O)c1cc(C(=O)c2cc(F)ccc2O)coc1=N
[1]
  AC50: 7.31 µM [falling, partial curve, poor fit]

## Cn1nc(C(=O)Nc2nc(-c3ccccn3)cs2)c2ccccc2c1=O
[1]
  AC50: 0.082 µM [rising, full curve, poor fit]

## Cc1ccccc1C(=O)NNC(=O)C(=O)Nc1cccc(Cl)c1C
[1]
  AC50: 25.1 µM [falling, partial curve, poor fit]

## O=C(/C=C/c1cccs1)Nc1ccc([N+](=O)[O-])cc1
[1]
  AC50: 0.366 µM [rising, full curve]

## Cc1csc(NC(=O)C2COc3ccccc3O2)n1 (stereo not drawn)
[1]
  AC50: 0.00461 µM [rising, full curve, poor fit]

## COc1ccc(Cc2nnc(SC(C)C(=O)Nc3ccc(C(N)=O)cc3)o2)cc1 (stereo not drawn)
[1]
  AC50: 13 µM [rising, partial curve]

## CS(=O)(=O)N(CC(=O)Nc1ccc(S(=O)(=O)N2CCOCC2)cc1)c1ccccc1Br
[1]
  AC50: 8.91 µM [rising, partial curve, poor fit]

## O=C(CN(c1ccc(Cl)c(Cl)c1)S(=O)(=O)c1ccccc1)N1CCc2ccccc2C1
[1]
  AC50: 22.4 µM [falling, single point]

## c1ccc(C2CC(c3cccs3)=NN2c2ccccc2)cc1 (stereo not drawn)
[1]
  AC50: 22.4 µM [rising, single point]

## CCCCC(CC)CN=C(N)NC(N)=NCCCCCCN=C(N)NC(N)=NCC(CC)CCCC (stereo not drawn)
[1]
  AC50: 29.1 µM [falling, single point]

## CCCCCCCC(=O)N/N=C/c1ccco1
[1]
  AC50: 10 µM [rising, partial curve]

## COc1ccc(/C=C/C(=O)NCC(=O)N/N=C/c2cc(Br)ccc2OCc2ccccc2)cc1
[1]
  AC50: 4.61 µM [rising, partial curve, poor fit]

## O=C(CSc1nc2ccccc2[nH]1)N=Nc1c(O)[nH]c2ccccc12
[1]
  AC50: 29.1 µM [falling, single point]

## Cc1ccc(/C=N\NC(=O)C2COc3cc4ccccc4cc3O2)o1 (stereo not drawn)
[1]
  AC50: 17.8 µM [falling, partial curve, poor fit]

## O=C(Nc1cccc(-c2ccc(N3CCOCC3)nn2)c1)c1ccc([N+](=O)[O-])cc1
[1]
  AC50: 36.6 µM [falling, single point]

## N/C(=N\OC(=O)CC1CCCCC1)c1cccnc1
[1]
  AC50: 3.98 µM [rising, partial curve, poor fit]

## COc1ccc2nc(SCc3ccccc3)nc(C)c2c1
[1]
  AC50: 18.4 µM [rising, single point]

## S=C(NCc1ccco1)N1CCN(C/C=C/c2ccccc2)CC1
[1]
  AC50: 35.5 µM [falling, single point]

## Cc1ccc(-n2[nH]c(C)c(C=Nc3ccc(S(=O)(=O)Nc4nccs4)cc3)c2=O)cc1
[1]
  AC50: 23.1 µM [falling, single point]
